Test results from paper PMC3063181.
These are yes or no findings as the source states them, for the method shown. In cells and extracts the contact can be indirect. Here binding means that the protein was enriched with, or labelled near, the bait; the list need not be complete.

The chains behind the UniProt entries cited, without tags or fusion partners.
UniProt O43747: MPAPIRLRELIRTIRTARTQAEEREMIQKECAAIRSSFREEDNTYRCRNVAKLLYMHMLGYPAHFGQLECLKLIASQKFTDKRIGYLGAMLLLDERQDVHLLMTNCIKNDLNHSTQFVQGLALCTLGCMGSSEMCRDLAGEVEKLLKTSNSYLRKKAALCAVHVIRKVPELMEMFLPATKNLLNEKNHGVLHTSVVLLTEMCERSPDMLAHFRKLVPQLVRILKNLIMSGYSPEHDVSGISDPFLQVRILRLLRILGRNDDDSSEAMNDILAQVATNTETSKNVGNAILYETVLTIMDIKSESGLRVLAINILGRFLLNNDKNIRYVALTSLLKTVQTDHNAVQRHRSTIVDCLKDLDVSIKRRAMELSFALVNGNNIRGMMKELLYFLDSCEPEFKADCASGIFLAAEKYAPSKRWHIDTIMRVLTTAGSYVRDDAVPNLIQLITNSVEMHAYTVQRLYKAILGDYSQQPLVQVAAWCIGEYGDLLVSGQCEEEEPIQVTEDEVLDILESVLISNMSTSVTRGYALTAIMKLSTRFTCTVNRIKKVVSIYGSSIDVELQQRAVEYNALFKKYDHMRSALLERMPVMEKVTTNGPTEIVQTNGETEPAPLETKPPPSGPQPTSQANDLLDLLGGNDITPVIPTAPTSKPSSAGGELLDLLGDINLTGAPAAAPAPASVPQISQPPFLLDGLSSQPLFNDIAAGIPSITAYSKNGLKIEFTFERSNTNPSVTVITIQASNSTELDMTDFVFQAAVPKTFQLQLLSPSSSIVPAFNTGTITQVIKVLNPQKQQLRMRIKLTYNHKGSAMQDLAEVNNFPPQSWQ
UniProt Q9H1H9: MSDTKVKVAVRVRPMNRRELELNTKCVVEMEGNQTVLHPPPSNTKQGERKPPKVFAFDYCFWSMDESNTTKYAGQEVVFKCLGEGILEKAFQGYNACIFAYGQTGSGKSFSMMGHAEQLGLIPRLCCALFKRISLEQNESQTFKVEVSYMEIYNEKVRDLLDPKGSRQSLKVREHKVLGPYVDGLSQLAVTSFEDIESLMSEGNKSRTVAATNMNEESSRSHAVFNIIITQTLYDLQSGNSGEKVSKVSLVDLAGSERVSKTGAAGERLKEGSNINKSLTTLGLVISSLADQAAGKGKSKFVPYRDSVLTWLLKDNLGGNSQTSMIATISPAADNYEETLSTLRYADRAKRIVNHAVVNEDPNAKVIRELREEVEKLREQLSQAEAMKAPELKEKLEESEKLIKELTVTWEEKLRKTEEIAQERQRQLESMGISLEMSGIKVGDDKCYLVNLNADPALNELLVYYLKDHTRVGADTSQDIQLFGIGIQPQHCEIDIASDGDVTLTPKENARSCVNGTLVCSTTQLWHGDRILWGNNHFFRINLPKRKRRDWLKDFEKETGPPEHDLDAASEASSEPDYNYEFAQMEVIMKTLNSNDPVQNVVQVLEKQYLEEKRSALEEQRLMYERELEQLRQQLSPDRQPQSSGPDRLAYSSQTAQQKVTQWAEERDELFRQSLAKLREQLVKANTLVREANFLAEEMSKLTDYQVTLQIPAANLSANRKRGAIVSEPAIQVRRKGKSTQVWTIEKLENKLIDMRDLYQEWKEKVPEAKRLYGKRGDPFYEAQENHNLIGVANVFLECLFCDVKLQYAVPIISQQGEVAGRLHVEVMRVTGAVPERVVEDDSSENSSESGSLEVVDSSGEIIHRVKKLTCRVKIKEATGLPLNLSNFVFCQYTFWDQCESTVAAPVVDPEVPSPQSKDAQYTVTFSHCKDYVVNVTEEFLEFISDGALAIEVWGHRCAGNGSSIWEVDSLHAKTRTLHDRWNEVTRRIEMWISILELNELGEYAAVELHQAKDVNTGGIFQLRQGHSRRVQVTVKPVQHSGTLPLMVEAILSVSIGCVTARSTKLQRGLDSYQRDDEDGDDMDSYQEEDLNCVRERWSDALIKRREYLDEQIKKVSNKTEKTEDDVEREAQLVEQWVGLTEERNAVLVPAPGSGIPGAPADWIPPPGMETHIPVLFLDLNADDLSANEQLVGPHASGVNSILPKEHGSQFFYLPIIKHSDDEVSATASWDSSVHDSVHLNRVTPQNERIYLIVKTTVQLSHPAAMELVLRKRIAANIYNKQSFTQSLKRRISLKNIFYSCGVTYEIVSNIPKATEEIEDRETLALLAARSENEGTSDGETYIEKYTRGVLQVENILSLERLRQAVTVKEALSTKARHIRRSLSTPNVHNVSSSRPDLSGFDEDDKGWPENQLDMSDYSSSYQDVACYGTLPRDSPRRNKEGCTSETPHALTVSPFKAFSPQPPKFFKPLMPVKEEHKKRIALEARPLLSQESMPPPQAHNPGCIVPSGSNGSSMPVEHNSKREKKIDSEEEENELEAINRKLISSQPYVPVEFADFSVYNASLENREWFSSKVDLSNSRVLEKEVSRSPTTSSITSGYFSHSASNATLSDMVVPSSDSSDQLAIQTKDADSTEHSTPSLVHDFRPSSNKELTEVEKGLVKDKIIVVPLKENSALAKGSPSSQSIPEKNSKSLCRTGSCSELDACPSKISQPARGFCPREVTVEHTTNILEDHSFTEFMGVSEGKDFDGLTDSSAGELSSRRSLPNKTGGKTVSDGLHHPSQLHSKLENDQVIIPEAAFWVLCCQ
UniProt Q9P2D3: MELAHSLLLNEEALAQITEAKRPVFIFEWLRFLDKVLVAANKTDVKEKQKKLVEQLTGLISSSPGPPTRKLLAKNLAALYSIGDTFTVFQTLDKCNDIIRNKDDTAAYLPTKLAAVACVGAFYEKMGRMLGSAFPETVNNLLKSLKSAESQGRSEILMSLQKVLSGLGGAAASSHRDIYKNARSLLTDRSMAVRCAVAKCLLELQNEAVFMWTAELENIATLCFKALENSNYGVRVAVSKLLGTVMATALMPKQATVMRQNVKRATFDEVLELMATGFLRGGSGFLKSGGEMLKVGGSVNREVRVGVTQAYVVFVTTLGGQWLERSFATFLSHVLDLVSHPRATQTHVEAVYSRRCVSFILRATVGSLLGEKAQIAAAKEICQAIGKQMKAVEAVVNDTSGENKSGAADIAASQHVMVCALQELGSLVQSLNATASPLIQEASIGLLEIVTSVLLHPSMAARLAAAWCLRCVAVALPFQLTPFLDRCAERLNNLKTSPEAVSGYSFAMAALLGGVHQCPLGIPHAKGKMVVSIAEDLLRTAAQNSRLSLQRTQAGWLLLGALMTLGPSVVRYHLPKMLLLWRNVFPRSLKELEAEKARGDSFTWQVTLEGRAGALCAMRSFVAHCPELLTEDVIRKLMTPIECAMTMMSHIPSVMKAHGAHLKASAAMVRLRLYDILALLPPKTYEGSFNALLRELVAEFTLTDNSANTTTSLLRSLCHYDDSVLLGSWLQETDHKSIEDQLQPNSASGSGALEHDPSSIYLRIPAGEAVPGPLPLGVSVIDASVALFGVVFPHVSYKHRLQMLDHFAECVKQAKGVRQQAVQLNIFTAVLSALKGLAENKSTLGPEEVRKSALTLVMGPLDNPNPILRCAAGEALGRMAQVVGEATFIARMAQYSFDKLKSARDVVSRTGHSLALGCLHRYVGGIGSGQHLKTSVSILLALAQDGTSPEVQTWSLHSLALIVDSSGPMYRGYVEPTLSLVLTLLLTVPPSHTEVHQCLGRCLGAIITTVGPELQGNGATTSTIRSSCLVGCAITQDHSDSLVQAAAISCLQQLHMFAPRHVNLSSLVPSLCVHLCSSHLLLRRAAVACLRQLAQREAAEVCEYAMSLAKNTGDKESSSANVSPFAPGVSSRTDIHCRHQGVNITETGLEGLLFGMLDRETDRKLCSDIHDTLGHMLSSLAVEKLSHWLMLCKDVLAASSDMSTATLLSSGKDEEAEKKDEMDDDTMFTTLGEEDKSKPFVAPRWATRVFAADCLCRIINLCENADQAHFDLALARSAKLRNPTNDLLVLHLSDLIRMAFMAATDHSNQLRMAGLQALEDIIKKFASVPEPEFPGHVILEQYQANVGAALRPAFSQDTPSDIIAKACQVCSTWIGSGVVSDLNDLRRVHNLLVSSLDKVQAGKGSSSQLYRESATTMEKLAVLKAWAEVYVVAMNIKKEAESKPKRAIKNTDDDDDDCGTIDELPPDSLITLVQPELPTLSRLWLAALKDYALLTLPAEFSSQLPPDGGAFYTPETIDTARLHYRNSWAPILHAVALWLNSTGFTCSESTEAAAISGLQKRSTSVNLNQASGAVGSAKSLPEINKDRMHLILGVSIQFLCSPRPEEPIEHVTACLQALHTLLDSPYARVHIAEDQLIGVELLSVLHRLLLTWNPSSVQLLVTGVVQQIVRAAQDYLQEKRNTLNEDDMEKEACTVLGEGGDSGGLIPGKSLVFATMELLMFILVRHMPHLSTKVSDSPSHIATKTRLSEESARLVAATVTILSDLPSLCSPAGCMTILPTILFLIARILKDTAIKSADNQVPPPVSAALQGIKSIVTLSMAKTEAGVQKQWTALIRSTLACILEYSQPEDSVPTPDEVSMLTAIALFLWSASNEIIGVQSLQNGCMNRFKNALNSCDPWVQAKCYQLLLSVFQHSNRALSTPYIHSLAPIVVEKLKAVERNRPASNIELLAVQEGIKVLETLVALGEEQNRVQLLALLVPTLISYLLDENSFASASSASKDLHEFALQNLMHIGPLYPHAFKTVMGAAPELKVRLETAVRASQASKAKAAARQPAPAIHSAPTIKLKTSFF
UniProt P61966: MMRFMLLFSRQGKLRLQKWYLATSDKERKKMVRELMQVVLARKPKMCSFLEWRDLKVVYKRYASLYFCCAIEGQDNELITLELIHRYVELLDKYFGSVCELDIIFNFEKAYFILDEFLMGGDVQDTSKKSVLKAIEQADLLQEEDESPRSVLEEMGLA

B1: AP-1β subunit (β1) (protein, UniProt Q10567 1-949)
chain: MTDSKYFTTTKKGEIFELKAELNSDKKEKKKEAVKKVIASMTVGKDVSALFPDVVNCMQTDNLELKKLVYLYLMNYAKSQPDMAIMAVNTFVKDCEDPNPLIRALAVRTMGCIRVDKITEYLCEPLRKCLKDEDPYVRKTAAVCVAKLHDINAQLVEDQGFLDTLKDLISDSNPMVVANAVAALSEIAESHPSSNLLDLNPQSINKLLTALNECTEWGQIFILDCLANYMPKDDREAQSICERVTPRLSHANSAVVLSAVKVLMKFMEMLSKDLDYYGTLLKKLAPPLVTLLSAEPELQYVALRNINLIVQKRPEILKHEMKVFFVKYNDPIYVKLEKLDIMIRLASQANIAQVLAELKEYATEVDVDFVRKAVRAIGRCAIKVEQSAERCVSTLLDLIQTKVNYVVQEAIVVIKDIFRKYPNKYESVIATLCENLDSLDEPEARAAMIWIVGEYAERIDNADELLESFLEGFHDESTQVQLQLLTAIVKLFLKKPTETQELVQQVLSLATQDSDNPDLRDRGYIYWRLLSTDPVAAKEVVLAEKPLISEETDLIEPTLLDELICYIGTLASVYHKPPSAFVEGGRGVVHKSLPPRTASSESAESPETAPTGAPPGEQPDVIPAQGDLLGDLLNLDLGPPVSGPPLATSSVQMGAVDLLGGGLDSLMGDEPEGIGGTNFVAPPTAAVPANLGAPIGSGLSDLFDLTSGVGTLSGSYVAPKAVWLPAMKAKGLEISGTFTRQVGSISMDLQLTNKALQVMTDFAIQFNRNSFGLAPAAPLQVHAPLSPNQTVEISLPLSTVGSVMKMEPLNNLQVAVKNNIDVFYFSTLYPLHILFVEDGKMDRQMFLATWKDIPNENEAQFQIRDCPLNAEAASSKLQSSNIFTVAKRNVEGQDMLYQSLKLTNGIWVLAELRIQPGNPSCTDLELSLKCRAPEVSQHVYQAYETILKN
B2: Aftiphilin (protein, UniProt Q6ULP2 1-936)
chain: MEPDIIRMYSSSPPPLDNGAEDDDDDEFGEFGGFSEVSPSGVGFVDFDTPDYTRPKEEFVPSNHFMPIHEFSENVDSLTSFKSIKNGNDKDITAELSAPVKGQSDVLLSTTSKEIISSEMLATSIDGMERPGNLNKVVEQRQNVGTLESFSPGDFRTNMNVVHQNKQLESCNGEKPPCLEILTNGFAVLETVNPQGTDDLDNVADSKGRKPLSTHSTEYNLDSVPSPAEEFADFATFSKKERIQLEEIECAVLNDREALTIRENNKINRVNELNSVKEVALGRSLDNKGDTDGEDQVCVSEISIVTNRGFSVEKQGLPTLQQDEFLQSGVQSKAWSLVDSADNSEAIRREQCKTEEKLDLLTSKCAHLCMDSVKTSDDEVGSPKEESRKFTNFQSPNIDPTEENDLDDSLSVKNGDSSNDFVTCNDINEDDFGDFGDFGSASGSTPPFVTGTQDSMSDATFEESSEHFPHFSEPGDDFGEFGDINAVSCQEETILTKSDLKQTSDNLSEECQLARKSSGTGTEPVAKLKNGQEGEIGHFDSVPNIQDDCNGFQDSDDFADFSSAGPSQVVDWNAFEDEQKDSCSWAAFGDQQATESHHRKEAWQSHRTDENIDTPGTPKTHSVPSATSKGAVASGHLQESATSVQTALLNRLERIFEACFPSILVPDAEEEVTSLKHLLETSTLPIKTREALPESGELLDVWTELQDIHDAHGLRYQWGGSHSNKKLLSSLGIDTRNILFTGNKKQPVIVPMYAAGLGMLEPTKEPLKPLSAAEKIASIGQTATMSPDMNTCTSDQFQESLPPVQFDWSSSGLTNPLDASGGSTLLNLDFFGPVDDSSSSSSTTIPGVDPELYELTTSKLEISTSSLKVTDAFARLMSTVEKTSTSTRKPKREEHLSEEAIKVIAGLPDLTFMHAKVLMFPATLTPSTSSQEKADG
B3: γ-Synergin (protein, UniProt Q9UMZ2 1-1314)
chain: MALRPGAGSGGGGAAGAGAGSAGGGGFMFPVAGGIRPPQAGLMPMQQQGFPMVSVMQPNMQGIMGMNYSSQMSQGPIAMQAGIPMGPMPAAGMPYLGQAPFLGMRPPGPQYTPDMQKQFAEEQQKRFEQQQKLLEEERKRRQFEEQKQKLRLLSSVKPKTGEKSRDDALEAIKGNLDGFSRDAKMHPTPASHPKKPGPSLEEKFLVSCDISTSGQEQIKLNTSEVGHKALGPGSSKKYPSLMASNGVAVDGCVSGTTTAEAENTSDQNLSIEESGVGVFPSQDPAQPRMPPWIYNESLVPDAYKKILETTMTPTGIDTAKLYPILMSSGLPRETLGQIWALANRTTPGKLTKEELYTVLAMIAVTQRGVPAMSPDALNQFPAAPIPTLSGFSMTLPTPVSQPTVIPSGPAGSMPLSLGQPVMGINLVGPVGGAAAQASSGFIPTYPANQVVKPEEDDFQDFQDASKSGSLDDSFSDFQELPASSKTSNSQHGNSAPSLLMPLPGTKALPSMDKYAVFKGIAADKSSENTVPPGDPGDKYSAFRELEQTAENKPLGESFAEFRSAGTDDGFTDFKTADSVSPLEPPTKDKTFPPSFPSGTIQQKQQTQVKNPLNLADLDMFSSVNCSSEKPLSFSAVFSTSKSVSTPQSTGSAATMTALAATKTSSLADDFGEFSLFGEYSGLAPVGEQDDFADFMAFSNSSISSEQKPDDKYDALKEEASPVPLTSNVGSTVKGGQNSTAASTKYDVFRQLSLEGSGLGVEDLKDNTPSGKSDDDFADFHSSKFSSINSDKSLGEKAVAFRHTKEDSASVKSLDLPSIGGSSVGKEDSEDALSVQFDMKLADVGGDLKHVMSDSSLDLPTVSGQHPPAADIEDLKYAAFGSYSSNFAVSTLTSYDWSDRDDATQGRKLSPFVLSAGSGSPSATSILQKKETSFGSSENITMTSLSKVTTFVSEDALPETTFPALASFKDTIPQTSEQKEYENRDYKDFTKQDLPTAERSQEATCPSPASSGASQETPNECSDDFGEFQSEKPKISKFDFLVATSQSKMKSSEEMIKSELATFDLSVQGSHKRSLSLGDKEISRSSPSPALEQPFRDRSNTLNEKPALPVIRDKYKDLTGEVEENERYAYEWQRCLGSALNVIKKANDTLNGISSSSVCTEVIQSAQGMEYLLGVVEVYRVTKRVELGIKATAVCSEKLQQLLKDIDKVWNNLIGFMSLATLTPDENSLDFSSCMLRPGIKNAQELACGVCLLNVDSRSRKEEKPAEEHPKKAFNSETDSFKLAYGGHQYHASCANFWINCVEPKPPGLVLPDLL
B4: AP-1µ1a subunit (protein, UniProt Q9BXS5 1-423)
chain: MSASAVYVLDLKGKVLICRNYRGDVDMSEVEHFMPILMEKEEEGMLSPILAHGGVRFMWIKHNNLYLVATSKKNACVSLVFSFLYKVVQVFSEYFKELEEESIRDNFVIIYELLDELMDFGYPQTTDSKILQEYITQEGHKLETGAPRPPATVTNAVSWRSEGIKYRKNEVFLDVIESVNLLVSANGNVLRSEIVGSIKMRVFLSGMPELRLGLNDKVLFDNTGRGKSKSVELEDVKFHQCVRLSRFENDRTISFIPPDGEFELMSYRLNTHVKPLIWIESVIEKHSHSRIEYMIKAKSQFKRRSTANNVEIHIPVPNDADSPKFKTTVGSVKWVPENSEIVWSIKSFPGGKEYLMRAHFGLPSVEAEDKEGKPPISVKFEIPYFTTSGIQVRYLKIIEKSGYQALPWVRYITQNGDYQLRTQ
B5: AP-1σ1b subunit (protein, UniProt P56377 1-157)
chain: MQFMLLFSRQGKLRLQKWYVPLSDKEKKKITRELVQTVLARKPKMCSFLEWRDLKIVYKRYASLYFCCAIEDQDNELITLEIIHRYVELLDKYFGSVCELDIIFNFEKAYFILDEFLLGGEVQETSKKNVLKAIEQADLLQEEAETPRSVLEEIGLT
B6: AP-1σ1c subunit (protein, UniProt Q96PC3 1-154)
chain: MIHFILLFSRQGKLRLQKWYITLPDKERKKITREIVQIILSRGHRTSSFVDWKELKLVYKRYASLYFCCAIENQDNELLTLEIVHRYVELLDKYFGNVCELDIIFNFEKAYFILDEFIIGGEIQETSKKIAVKAIEDSDMLQEVSTVSQTMGER

Tests used:
[1] = biological target: Adaptor protein complex 1 (AP-1) γ-subunit, AP-1γ1 (human (endogenous in HeLa)) (UniProt O43747); experiment: affinity purification with mass spectrometry; native IP of AP-1γ from HeLa detergent lysate (MES-D buffer in experiments 1 and 2, PBS-T in experiment 3), protein A sepharose; standard or soft elution; tryptic solution digest without fractionation, LC-MSMS; three independent repeats
[2] = biological target: Adaptor protein complex 1 (AP-1) γ-subunit, AP-1γ1 (human (endogenous in HeLa)) (UniProt O43747); experiment: affinity purification with mass spectrometry; native IP of the AP-1γ subunit from HeLa cell lysate with a rabbit polyclonal antibody, protein A sepharose; standard or soft elution; SDS-PAGE, Coomassie, selected bands identified by mass spectrometry

Row | Molecule | binding [1] | binding [2]
1 | KIF13A (from UniProt Q9H1H9 1-1805) | binds | –
2 | p200 (from UniProt Q9P2D3 1-2071) | binds | binds
3 | AP-1σ1a subunit (from UniProt P61966 1-158) | binds | –
4 | B1 | binds | binds
5 | B2 | binds | –
6 | B3 | binds | binds
7 | B4 | binds | binds
8 | B5 | binds | –
9 | B6 | binds | –
